These are yes or no findings as the source states them, for the method shown. Binding seen in cells or lysates may run through a third protein. Some binding calls cover weakened binding; strength is not graded here.

Chains of the proteins cited; added tags and fusions are not shown.
UniProt P54646: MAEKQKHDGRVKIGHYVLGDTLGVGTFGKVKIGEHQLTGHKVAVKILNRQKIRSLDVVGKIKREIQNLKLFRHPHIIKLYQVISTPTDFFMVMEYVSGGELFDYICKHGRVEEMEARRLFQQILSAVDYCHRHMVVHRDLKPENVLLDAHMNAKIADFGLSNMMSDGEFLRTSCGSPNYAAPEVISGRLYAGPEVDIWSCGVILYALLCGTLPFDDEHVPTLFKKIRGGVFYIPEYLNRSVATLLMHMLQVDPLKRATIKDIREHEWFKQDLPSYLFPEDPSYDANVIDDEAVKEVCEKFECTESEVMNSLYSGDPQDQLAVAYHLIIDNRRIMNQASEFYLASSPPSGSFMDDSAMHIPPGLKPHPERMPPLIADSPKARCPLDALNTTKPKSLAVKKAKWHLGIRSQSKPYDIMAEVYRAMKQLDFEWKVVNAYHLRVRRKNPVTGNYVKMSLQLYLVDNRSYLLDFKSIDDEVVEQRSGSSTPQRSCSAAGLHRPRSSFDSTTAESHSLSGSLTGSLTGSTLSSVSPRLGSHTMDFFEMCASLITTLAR
UniProt Q96EP0: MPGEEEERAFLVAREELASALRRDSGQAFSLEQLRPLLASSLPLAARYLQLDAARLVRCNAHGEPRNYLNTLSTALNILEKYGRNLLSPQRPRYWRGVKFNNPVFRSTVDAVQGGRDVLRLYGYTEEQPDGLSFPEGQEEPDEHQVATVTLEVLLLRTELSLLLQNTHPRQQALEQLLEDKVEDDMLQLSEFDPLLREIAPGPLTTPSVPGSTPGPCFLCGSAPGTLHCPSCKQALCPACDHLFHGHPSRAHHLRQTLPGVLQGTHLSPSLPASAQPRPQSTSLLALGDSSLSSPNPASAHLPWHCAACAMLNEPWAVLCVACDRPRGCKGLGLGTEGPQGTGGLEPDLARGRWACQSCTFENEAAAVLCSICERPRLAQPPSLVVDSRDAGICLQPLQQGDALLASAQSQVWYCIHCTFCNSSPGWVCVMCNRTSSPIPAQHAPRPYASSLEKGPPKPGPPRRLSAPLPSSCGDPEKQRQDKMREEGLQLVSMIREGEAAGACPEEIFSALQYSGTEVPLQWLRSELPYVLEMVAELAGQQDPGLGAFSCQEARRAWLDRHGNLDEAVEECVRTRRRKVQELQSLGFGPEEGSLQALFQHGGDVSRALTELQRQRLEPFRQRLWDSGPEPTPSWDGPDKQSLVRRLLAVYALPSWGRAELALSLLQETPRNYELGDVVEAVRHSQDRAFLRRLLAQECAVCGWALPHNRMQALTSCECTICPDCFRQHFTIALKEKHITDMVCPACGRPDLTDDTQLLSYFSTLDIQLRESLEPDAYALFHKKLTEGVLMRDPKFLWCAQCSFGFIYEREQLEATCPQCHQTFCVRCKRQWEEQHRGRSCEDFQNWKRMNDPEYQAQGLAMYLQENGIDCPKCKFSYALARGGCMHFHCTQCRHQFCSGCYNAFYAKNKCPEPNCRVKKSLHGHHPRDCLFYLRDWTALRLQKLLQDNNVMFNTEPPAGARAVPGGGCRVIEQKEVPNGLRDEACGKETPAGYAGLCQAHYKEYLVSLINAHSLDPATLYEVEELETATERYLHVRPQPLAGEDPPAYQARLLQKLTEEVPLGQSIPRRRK
UniProt Q96BN8: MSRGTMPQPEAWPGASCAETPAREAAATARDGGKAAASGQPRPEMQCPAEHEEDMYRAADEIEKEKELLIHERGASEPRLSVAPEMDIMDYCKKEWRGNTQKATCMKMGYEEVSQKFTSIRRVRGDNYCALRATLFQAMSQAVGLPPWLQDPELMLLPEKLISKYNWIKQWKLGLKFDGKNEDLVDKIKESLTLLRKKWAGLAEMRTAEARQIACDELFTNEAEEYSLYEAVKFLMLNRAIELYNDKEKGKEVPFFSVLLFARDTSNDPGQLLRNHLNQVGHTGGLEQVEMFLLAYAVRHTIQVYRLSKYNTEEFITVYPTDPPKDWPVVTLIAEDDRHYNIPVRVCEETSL
UniProt Q9BYM8: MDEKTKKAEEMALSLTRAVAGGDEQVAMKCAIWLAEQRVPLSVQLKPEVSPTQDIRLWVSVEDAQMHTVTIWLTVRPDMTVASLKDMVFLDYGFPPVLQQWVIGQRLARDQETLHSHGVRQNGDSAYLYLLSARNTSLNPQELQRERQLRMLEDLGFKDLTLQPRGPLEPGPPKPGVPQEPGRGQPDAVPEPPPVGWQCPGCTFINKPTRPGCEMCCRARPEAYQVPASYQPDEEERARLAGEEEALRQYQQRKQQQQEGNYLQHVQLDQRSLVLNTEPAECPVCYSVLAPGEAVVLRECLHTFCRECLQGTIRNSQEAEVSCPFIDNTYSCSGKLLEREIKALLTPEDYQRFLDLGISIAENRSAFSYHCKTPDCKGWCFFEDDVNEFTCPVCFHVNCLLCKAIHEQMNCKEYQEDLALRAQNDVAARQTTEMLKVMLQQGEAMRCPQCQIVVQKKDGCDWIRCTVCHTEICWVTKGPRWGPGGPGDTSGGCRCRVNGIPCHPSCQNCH
UniProt P54619: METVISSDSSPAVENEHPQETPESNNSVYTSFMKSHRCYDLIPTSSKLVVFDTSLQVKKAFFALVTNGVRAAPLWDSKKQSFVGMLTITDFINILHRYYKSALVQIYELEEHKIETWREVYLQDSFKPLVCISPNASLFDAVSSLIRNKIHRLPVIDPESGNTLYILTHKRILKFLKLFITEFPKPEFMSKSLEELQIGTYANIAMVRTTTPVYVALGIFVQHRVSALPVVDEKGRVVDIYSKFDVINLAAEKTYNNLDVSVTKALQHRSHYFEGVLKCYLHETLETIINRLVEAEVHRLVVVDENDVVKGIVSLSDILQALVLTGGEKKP

Binding data for four substances are collected here from doi:10.1101/2024.11.08.622598.

For experiment [1], the target named is 2xFLAG-2xStrep-AMPKα2 (UniProt P54646). Kind of experiment: co-IP.
In experiment [2] the target is 2xHA-2xStrep-HOIP (co-expressed with V5-HOIL1 and V5-SHARPIN; the precipitate is called LUBAC) (UniProt Q96EP0). Kind of experiment: pull-down.
Experiment [3] addresses 2xHA-2xStrep-OTULIN, full-length wild type (UniProt Q96BN8). Kind of experiment: pull-down.

As for “OTULIN, endogenous (from UniProt Q96BN8 1-352) (enzyme)”, the binding result in experiment [1] was “binds”.

As to “HOIP (RNF31), endogenous (from UniProt Q96EP0 1-1072) (enzyme)”, in experiment [1], the binding result is given as “binds”.

“HOIL-1, endogenous (from UniProt Q9BYM8 1-510) (enzyme)”: the binding entry in experiment [1] was “binds”.

With “AMPK γ1 subunit (PRKAG1), endogenous (from UniProt P54619 1-331)”, the binding result in experiment [2] and in experiment [3] was “binds” in each case.
